The supplement of paper PMC7666118
The other results are listed elsewhere or left out.

Protein sequences, listed by entry. Tags and fused reporters are not part of them. Lines headed by an entry give the natural chain unless they say otherwise; changes in a name come on top.
UniProt Q6P4R8, whole entry: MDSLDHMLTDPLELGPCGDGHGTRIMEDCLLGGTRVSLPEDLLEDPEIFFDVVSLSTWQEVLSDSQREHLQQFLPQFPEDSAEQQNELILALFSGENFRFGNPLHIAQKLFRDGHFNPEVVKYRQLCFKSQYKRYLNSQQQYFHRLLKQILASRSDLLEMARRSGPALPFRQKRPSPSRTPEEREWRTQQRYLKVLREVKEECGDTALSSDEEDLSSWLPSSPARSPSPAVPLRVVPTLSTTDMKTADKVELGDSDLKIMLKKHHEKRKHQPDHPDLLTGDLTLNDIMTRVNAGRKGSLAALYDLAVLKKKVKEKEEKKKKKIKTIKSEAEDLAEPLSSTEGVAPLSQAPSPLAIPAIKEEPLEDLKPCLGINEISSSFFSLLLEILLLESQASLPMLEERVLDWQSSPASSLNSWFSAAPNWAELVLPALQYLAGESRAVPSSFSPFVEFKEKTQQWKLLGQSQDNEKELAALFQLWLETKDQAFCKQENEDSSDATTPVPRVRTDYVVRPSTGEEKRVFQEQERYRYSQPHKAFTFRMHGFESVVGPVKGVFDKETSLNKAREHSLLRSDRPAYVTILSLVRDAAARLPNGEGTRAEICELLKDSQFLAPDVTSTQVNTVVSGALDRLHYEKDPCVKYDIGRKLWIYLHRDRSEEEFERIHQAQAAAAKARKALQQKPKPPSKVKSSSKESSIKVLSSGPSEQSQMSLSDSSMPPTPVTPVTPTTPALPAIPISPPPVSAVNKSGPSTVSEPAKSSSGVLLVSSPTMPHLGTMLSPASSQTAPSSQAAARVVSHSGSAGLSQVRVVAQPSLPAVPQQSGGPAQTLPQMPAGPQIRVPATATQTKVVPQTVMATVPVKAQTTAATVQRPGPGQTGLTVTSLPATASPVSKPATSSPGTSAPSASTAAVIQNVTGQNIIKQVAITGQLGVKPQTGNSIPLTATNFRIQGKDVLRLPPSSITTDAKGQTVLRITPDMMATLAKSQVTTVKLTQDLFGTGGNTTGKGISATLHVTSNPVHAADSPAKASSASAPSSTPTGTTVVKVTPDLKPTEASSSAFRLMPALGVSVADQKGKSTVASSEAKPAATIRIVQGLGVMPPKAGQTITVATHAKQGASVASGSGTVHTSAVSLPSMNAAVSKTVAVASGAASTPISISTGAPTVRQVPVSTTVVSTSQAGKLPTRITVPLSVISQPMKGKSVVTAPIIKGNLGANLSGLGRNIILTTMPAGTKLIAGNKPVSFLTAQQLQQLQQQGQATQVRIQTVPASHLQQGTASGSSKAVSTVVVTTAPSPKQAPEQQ
UniProt Q8N183: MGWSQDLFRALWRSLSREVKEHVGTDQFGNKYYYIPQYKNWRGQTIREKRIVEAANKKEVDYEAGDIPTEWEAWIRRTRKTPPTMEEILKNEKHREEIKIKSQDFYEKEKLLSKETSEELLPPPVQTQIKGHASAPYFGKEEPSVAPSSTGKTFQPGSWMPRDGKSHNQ
UniProt Q13232: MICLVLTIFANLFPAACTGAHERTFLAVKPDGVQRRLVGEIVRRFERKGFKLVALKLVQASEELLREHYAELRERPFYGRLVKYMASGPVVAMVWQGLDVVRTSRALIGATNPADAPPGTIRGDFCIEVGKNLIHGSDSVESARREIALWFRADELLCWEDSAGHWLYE
UniProt Q9NQR4: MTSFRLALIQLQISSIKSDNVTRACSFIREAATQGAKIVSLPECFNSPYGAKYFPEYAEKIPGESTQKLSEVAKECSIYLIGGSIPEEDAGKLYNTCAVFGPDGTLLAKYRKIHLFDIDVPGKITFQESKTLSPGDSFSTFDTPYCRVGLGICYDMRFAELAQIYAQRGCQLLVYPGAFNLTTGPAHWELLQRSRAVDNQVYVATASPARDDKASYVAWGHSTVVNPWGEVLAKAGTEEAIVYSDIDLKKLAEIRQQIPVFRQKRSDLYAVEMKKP
UniProt P16083: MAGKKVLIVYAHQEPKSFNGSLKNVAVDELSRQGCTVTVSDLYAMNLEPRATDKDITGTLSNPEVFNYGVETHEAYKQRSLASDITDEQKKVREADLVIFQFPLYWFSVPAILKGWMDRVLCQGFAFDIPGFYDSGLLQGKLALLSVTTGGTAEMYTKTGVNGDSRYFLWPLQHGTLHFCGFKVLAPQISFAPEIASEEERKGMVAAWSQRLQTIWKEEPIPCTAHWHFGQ
UniProt Q8NC96: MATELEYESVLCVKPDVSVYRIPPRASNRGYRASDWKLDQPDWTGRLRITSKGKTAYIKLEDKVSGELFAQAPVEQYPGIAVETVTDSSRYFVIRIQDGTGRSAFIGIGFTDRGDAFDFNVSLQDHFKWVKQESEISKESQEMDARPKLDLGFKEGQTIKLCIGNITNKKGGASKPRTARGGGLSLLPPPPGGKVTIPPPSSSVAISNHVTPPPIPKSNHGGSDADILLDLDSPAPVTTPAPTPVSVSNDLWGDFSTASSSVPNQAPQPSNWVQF
UniProt Q9NPP4, whole entry: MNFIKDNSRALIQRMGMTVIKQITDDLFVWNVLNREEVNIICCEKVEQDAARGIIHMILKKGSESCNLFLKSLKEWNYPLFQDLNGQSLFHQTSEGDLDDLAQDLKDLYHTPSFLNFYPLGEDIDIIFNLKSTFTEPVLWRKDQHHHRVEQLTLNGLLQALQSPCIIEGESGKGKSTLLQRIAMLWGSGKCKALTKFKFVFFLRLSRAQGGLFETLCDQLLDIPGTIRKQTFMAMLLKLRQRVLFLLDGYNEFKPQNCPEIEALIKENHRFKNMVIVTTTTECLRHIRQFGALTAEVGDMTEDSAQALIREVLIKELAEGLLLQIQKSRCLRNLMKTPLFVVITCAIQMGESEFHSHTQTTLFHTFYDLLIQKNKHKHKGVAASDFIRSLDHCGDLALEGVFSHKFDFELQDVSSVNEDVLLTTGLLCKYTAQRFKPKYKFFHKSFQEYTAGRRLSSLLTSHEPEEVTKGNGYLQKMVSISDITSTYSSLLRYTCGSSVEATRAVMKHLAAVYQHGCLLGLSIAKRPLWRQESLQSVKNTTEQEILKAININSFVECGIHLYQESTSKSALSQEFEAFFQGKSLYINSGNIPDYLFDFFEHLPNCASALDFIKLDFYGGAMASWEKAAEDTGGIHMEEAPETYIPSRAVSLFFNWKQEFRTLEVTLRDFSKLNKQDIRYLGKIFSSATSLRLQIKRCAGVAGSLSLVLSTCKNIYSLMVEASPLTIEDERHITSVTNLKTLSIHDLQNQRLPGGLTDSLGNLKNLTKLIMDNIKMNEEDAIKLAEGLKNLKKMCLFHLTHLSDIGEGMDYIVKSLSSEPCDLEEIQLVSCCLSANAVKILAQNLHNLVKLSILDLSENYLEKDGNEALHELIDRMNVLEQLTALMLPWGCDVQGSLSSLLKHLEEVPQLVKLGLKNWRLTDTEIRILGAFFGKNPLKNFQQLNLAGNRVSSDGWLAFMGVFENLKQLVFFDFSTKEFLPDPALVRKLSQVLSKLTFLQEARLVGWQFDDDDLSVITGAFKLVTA
UniProt A8MXV4: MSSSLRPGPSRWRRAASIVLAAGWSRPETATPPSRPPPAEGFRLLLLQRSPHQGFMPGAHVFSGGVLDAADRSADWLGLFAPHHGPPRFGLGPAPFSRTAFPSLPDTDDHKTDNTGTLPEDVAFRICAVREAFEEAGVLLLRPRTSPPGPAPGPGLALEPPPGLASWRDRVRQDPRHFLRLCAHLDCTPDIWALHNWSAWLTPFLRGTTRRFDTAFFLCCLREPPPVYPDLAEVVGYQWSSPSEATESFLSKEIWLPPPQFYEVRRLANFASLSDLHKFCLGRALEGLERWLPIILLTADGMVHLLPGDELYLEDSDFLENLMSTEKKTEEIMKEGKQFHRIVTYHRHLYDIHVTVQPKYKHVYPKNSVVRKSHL
UniProt Q9BT67: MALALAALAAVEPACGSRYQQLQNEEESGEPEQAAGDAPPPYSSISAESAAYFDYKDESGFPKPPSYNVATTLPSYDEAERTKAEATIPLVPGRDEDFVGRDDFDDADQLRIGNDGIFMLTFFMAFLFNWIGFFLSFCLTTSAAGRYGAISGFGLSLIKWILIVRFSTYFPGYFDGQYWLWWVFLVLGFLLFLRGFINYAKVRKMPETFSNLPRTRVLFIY
UniProt Q14978: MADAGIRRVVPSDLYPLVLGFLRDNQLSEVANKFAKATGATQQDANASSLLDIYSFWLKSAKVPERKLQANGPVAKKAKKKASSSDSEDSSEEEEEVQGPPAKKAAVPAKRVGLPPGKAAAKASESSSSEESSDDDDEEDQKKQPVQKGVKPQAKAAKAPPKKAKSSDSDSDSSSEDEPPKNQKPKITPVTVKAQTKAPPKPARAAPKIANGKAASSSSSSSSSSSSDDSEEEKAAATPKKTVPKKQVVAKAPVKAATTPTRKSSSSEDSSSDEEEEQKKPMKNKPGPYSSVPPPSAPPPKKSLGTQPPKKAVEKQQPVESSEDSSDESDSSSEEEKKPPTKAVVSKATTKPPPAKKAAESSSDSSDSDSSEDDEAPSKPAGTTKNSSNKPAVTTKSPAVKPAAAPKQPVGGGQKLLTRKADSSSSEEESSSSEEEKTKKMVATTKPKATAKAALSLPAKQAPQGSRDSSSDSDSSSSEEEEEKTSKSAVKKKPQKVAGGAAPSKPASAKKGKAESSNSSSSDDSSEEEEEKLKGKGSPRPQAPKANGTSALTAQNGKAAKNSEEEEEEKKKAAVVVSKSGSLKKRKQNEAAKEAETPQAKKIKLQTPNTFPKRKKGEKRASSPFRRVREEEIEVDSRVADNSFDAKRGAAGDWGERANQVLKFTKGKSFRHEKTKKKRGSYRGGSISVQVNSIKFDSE
UniProt Q9NR45: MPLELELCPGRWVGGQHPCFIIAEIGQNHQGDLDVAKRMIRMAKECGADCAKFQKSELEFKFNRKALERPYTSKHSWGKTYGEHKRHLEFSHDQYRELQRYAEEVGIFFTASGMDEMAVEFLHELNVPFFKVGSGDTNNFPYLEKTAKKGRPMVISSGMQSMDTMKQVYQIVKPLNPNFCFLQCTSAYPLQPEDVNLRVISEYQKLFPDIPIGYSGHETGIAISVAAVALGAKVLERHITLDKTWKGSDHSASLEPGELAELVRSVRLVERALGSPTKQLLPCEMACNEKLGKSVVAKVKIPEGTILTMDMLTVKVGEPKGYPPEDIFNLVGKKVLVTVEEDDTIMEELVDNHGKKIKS
UniProt Q9BRJ7: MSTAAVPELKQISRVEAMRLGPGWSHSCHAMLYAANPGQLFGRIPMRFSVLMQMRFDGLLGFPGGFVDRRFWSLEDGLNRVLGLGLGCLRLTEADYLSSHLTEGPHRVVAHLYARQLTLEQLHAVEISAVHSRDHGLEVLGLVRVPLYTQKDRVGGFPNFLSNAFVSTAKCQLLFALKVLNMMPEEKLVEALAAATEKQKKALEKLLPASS
UniProt Q8TDX7: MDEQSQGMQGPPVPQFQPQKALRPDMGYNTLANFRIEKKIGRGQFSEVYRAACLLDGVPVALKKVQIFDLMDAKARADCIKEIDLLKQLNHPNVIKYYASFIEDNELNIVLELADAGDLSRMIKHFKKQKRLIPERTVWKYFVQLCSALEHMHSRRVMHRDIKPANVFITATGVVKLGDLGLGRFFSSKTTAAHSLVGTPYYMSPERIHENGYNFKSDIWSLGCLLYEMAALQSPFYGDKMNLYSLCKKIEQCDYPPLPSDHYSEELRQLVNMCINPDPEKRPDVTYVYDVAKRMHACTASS
UniProt Q9NX24: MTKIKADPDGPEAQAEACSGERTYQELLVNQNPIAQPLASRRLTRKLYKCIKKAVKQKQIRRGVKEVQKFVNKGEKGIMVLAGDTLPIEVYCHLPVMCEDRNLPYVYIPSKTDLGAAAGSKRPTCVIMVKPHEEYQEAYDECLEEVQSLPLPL
UniProt Q9H8H0: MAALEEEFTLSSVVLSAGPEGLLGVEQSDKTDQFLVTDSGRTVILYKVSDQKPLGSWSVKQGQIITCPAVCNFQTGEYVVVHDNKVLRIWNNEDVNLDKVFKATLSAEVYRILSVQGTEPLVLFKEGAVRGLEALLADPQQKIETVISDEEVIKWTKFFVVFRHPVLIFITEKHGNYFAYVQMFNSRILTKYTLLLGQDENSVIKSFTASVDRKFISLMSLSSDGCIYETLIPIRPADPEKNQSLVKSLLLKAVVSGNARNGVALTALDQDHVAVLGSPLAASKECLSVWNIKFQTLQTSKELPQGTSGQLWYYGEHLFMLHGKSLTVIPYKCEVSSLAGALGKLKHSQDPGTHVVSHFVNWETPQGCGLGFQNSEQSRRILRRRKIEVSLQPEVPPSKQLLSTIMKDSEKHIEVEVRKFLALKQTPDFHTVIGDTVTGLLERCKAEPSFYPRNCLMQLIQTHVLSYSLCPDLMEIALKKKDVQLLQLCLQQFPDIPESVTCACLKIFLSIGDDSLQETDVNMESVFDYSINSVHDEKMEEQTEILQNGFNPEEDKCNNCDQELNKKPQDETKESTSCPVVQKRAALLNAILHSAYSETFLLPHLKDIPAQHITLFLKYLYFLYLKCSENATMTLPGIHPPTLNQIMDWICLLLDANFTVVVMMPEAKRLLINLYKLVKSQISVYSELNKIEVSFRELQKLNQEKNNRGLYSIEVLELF
UniProt Q16718, whole entry: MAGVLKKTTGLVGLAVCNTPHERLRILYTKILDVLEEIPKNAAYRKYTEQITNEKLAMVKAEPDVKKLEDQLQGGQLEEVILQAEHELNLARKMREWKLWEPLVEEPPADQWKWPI

Compound: COc1ccc(Cn2ccc3cc(C)c(C(=O)NO)cc32)cc1
Experiment: dose-dependent thermal stabilisation call (2D-TPP, DLPTP, 10% FDR) (binary (1 = stabilised)); higher = stabilised by the compound
Conditions: system: HL-60 intact cells; concentration range 0.04-10 µM
Protocol: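 2D thermal proteome profiling in intact HL-60 cells treated with BRD-3811 (0, 0.04, 0.29, 2, 10 uM) for 90 min at 37 C, then heated 3 min at one of 12 temperatures (42-63.9 C). Soluble protein was quantified by TMT10 MS. The value is the DLPTP call of the paper: dose-dependent thermal stabilisation over all temperatures at 10% FDR (F-test of a dose-response against a flat model); one experiment, one call per tested protein.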

Row | Target | dose-dependent thermal stabilisation call
1 | NFRKB (UniProt Q6P4R8) | inactive: 0
2 | NDUFAF2 (UniProt Q8N183) | inactive: 0
3 | NIF3L1 (UniProt Q9GZT8) | inactive: 0
4 | NT5C2 (UniProt P49902) | inactive: 0
5 | NME3 (UniProt Q13232) | inactive: 0
6 | NUBP1 (UniProt P53384) | inactive: 0
7 | NFYB (UniProt P25208) | inactive: 0
8 | NUDT5 (UniProt Q9UKK9) | inactive: 0
9 | NUFIP1 (UniProt Q9UHK0) | inactive: 0
10 | NIT2 (UniProt Q9NQR4) | inactive: 0
11 | NQO2 (UniProt P16083) | inactive: 0
12 | NFKBIE (UniProt O00221) | inactive: 0
13 | NECAP1 (UniProt Q8NC96) | inactive: 0
14 | NFATC2IP (UniProt Q8NCF5) | inactive: 0
15 | NLRC4 (UniProt Q9NPP4) | inactive: 0
16 | NUP50 (UniProt Q9UKX7) | inactive: 0
17 | NCK1 (UniProt P16333) | inactive: 0
18 | OFD1 (UniProt O75665) | inactive: 0
19 | NDUFAB1 (UniProt O14561) | inactive: 0
20 | NT5C (UniProt Q8TCD5) | inactive: 0

Row | Target | dose-dependent thermal stabilisation call
21 | NUDT19 (UniProt A8MXV4) | inactive: 0
22 | NCBP2 (UniProt P52298) | inactive: 0
23 | NDUFB10 (UniProt O96000) | inactive: 0
24 | NARG1L (UniProt Q6N069) | inactive: 0
25 | NCDN (UniProt Q9UBB6) | inactive: 0
26 | NDFIP1 (UniProt Q9BT67) | inactive: 0
27 | NUBP2 (UniProt Q9Y5Y2) | inactive: 0
28 | NAP1L1 (UniProt P55209) | inactive: 0
29 | NENF (UniProt Q9UMX5) | inactive: 0
30 | NCOA3 (UniProt Q9Y6Q9) | inactive: 0
31 | NME7 (UniProt Q9Y5B8) | inactive: 0
32 | NOLC1 (UniProt Q14978) | inactive: 0
33 | NANS (UniProt Q9NR45) | inactive: 0
34 | NUDT16L1 (UniProt Q9BRJ7) | inactive: 0
35 | NPLOC4 (UniProt Q8TAT6) | inactive: 0
36 | NIPBL (UniProt Q6KC79) | inactive: 0
37 | NEK7 (UniProt Q8TDX7) | inactive: 0
38 | NHP2 (UniProt Q9NX24) | inactive: 0
39 | NOL11 (UniProt Q9H8H0) | inactive: 0
40 | NDUFA5 (UniProt Q16718) | inactive: 0

As a short view, part of the list above.
Row | Target | dose-dependent thermal stabilisation call
39 | NOL11 (UniProt Q9H8H0) | inactive: 0
40 | NDUFA5 (UniProt Q16718) | inactive: 0
